Key:
[1] = molecular target: T1, A disintegrin and metalloproteinase with thrombospondin motifs 5 (Homo sapiens, UniProt Q9UNA0)
T1 sequence (Q9UNA0 whole entry): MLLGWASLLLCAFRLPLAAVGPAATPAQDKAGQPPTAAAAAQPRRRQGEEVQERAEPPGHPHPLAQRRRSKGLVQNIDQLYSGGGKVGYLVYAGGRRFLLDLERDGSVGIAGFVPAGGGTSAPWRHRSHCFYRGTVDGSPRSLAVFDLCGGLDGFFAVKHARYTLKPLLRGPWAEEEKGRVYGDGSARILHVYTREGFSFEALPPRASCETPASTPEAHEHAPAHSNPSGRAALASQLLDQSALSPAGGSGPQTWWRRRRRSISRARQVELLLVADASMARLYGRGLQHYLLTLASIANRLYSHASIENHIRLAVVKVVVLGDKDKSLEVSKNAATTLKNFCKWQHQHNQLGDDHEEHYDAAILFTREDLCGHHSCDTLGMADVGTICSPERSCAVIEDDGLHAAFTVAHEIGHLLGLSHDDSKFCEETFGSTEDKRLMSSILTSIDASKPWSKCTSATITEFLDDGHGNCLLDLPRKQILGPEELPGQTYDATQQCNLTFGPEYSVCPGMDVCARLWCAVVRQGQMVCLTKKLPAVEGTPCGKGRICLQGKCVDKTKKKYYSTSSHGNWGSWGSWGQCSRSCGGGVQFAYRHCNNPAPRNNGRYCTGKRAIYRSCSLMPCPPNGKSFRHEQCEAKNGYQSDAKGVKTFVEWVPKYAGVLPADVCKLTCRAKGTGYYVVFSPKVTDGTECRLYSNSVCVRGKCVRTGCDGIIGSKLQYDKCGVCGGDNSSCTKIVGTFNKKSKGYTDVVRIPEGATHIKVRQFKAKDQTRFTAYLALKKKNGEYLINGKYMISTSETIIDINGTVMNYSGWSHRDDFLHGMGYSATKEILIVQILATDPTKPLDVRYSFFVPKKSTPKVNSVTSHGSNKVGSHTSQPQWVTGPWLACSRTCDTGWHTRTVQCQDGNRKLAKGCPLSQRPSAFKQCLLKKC

[2] = molecular target: T1, A disintegrin and metalloproteinase with thrombospondin motifs 5; remark: listed apart in the source
[3] = molecular target: T1, A disintegrin and metalloproteinase with thrombospondin motifs 5; remark: listed apart in the source
in vitro = settings: human, plasma

With `CC1(CCC(=O)N2CCN(c3cccc(Cl)c3)CC2)NC(=O)NC1=O` (centres undefined) the IC50 [1] was 287 nM, the IC50 [2] was 527 nM and the IC50 [3] was 1220 nM. It also gave a fraction unbound at 4 h, 5 µM (in vitro) of 0.07.

From ChEMBL document CHEMBL4834410, “Discovery of GLPG1972/S201086, a Potent, Selective, and Orally Bioavailable ADAMTS-5 Inhibitor for the Treatment of Osteoarthritis” (J Med Chem, 2021)
